According to article PMC3861119:

Experiments:
[1] = molecular target: Tay.2-Flag (1030 amino acid C-terminal fragment of Tay, C-terminal 3XFlag) (Drosophila melanogaster); experiment: co-IP; protein extracts of Drosophila embryos (da-Gal4 driven co-expression), 2 mg total protein, IP buffer with 200 mM NaCl, 1% NP-40, 0.1% SDS, 0.5% DOC; anti-FlagM2 agarose, 4°C for 12-16 h; blots with anti-Myc or anti-HA
[2] = molecular target: Tay.FL-Flag (full-length Tay bridge, C-terminal 3XFlag) (Drosophila melanogaster) (UniProt Q9VXM5); experiment: as above

binding [1]: no binding
binding [2]: binds
B1: Mkp3-Myc (enzyme, UniProt Q9VVW5 1-411)
chain: MPETEHETCSKEWLQSQLRSLDSKDLILLDCRGSHEYSESHIRGAVNLCIPSIVLRRLAVGKIDLASTIKSPELKQRIQSGYKLCWFILYNGEGVPGQNQEIAGAGSLAVAMDSIISILHRRLKQDGCRVVALQDGFNNFRQAFPEWCEDDNQTHSKEIESSRNVQTDQLMGLRSLRISTTQSDSACSSSAESSDCESSSHHHHHHSHHNYNEAPVEIIPGLLFLGNATHSCDSEALKKYNIKYVLNVTPDLPNKFKESGDIKYLQIPITDHYSQDLAIHFPDAIQFIEEARSASSVVLVHCLAGVSRSVTVTLAYLMHTRGLSLNDAFAMVRDRKPDVSPNFHFMQQLLSFESQLRLRPGSRFSCSCIAPDCNCMQTTGFMATHLANATGVSPDSGIEFDRWTPSDTGLK

Results are given in words; binding and its absence hold for the method and conditions named. In cells and extracts the contact can be indirect. For some assays here: Binding calls can cover weak binding; strength is not graded here. Sequences can lack the tags named with a protein.
